The results in this text go back to publication PMC4010427, “Structural and Functional Similarity of Amphibian Constitutive Androstane Receptor with Mammalian Pregnane X Receptor” (PLoS ONE, 2014).

No constants are given. Whether binding was seen depends on the method and setting. Binding seen in cells or lysates may run through a third protein.

This test deals with GST protein only. The test is described as follows: pull-down; CARLA control experiments set up with GST protein only instead of GST/SRC-1 fusion protein; only the target purified.

B1: full-length human CAR1 protein, 35S-labelled (protein, UniProt Q14994-2 1-348)
chain: MASREDELRNCVVCGDQATGYHFNALTCEGCKGFFRRTVSKSIGPTCPFAGSCEVSKTQRRHCPACRLQKCLDAGMRKDMILSAEALALRRAKQAQRRAQQTPVQLSKEQEELIRTLLGAHTRHMGTMFEQFVQFRPPAHLFIHHQPLPTLAPVLPLVTHFADINTFMVLQVIKFTKDLPVFRSLPIEDQISLLKGAAVEICHIVLNTTFCLQTQNFLCGPLRYTIEDGARVGFQVEFLELLFHFHGTLRKLQLQEPEYVLLAAMALFSPDRPGVTQRDEIDQLQEEMALTLQSYIKGQQRRPRDRFLYAKLLGLLAELRSINEAYGYQIQHIQGLSAMMPLLQEICS
modifications: 35S-methionine labelled
On to B1, for which the binding result is on record as “no binding”.
